Experimental data reported in US20180104321A1.
These are yes or no findings as the source states them, for the method shown. Some entries that bind do so weakly or less than the wild type.

Protein sequences, listed by entry. Tags and fused reporters are not part of them. Lines headed by an entry give the natural chain unless they say otherwise; changes in a name come on top. Residues count along the entry.
UniProt P20138, residues 18-259: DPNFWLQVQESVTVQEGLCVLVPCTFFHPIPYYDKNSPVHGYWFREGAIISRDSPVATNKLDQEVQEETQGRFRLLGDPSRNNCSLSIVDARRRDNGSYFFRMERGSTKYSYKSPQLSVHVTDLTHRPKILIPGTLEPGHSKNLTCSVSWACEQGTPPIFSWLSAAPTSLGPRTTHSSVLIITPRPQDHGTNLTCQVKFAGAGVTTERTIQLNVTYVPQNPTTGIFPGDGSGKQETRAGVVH

What was measured:
[1] = molecular target: recombinant CD33-Fc fusion (FIG. 17) (UniProt P20138); assay: flow cytometry of transduced PBMCs stained with recombinant CD33-Fc (FIG. 17C)
[2] = molecular target: chimeric soluble CD33-Mouse Fc (UniProt P20138); assay: flow cytometry of transfected 293T cells (FIG. 22 legend; staining reagents as in Example 9)
[3] = molecular target: chimeric soluble CD33-Mouse Fc (UniProt P20138); assay: flow cytometry of transfected 293T cells stained with soluble CD33-mouse Fc, then anti-mouse Fc-APC (FIG. 22)

- binding [1]: binds
- binding [2]: binds
- binding [3]: binds
B1: anti-CD33 CAR of the CD19:CD33 CAR construct of Examples 7 to 10 (receptor, not shown: large carriers)
chain: RCDIQMTQSPSSLSASVGDRVTITCRASEDIYFNLVWYQQKPGKAPKLLIYDTNRLADGVPSRFSGSGSGTQYTLTISSLQPEDFATYYCQHYKNYPLTFGQGTKLEIKRSGGGGSGGGGSGGGGSGGGGSRSEVQLVESGGGLVQPGGSLRLSCAASGFTLSNYGMHWIRQAPGKGLEWVSSISLNGGSTYYRDSVKGRFTISRDNAKSTLYLQMNSLRAEDTAVYYCAAQDAYTGGYFDYWGQGTLVTVSSM
